{"sequences": {"note": "Amino acid sequences for entries named in this document (tags omitted).", "UniProt P05370": "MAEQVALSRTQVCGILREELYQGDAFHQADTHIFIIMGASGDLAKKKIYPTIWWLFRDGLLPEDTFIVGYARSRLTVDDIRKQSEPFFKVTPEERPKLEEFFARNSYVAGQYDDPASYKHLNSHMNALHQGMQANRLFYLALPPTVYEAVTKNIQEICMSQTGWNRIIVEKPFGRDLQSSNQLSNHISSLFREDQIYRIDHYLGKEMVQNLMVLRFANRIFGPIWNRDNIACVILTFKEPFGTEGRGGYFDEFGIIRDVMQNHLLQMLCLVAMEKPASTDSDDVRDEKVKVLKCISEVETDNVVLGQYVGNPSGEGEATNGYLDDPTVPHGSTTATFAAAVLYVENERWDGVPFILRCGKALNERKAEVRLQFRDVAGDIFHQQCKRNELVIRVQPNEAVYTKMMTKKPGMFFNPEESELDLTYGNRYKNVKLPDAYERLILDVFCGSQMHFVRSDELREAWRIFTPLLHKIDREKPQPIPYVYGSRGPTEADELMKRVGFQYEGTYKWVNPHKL", "UniProt Q9Z2L0": "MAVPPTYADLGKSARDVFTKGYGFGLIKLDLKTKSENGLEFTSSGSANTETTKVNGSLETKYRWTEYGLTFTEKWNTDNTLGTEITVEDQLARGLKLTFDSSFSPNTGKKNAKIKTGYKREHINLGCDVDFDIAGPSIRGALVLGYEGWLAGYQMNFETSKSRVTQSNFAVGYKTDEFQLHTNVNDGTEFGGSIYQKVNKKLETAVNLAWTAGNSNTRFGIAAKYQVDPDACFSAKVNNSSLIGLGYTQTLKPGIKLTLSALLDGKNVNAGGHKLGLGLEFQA"}, "source": "paper PMC11003121", "molecular_target": "Glucose-6-phosphate dehydrogenase (G6PD), endogenous in rat VSMCs (rat (endogenous in primary VSMCs)) (UniProt P05370)", "test": "affinity purification with mass spectrometry; IP with G6PD antibody (rabbit IgG as mock control) from lysates of rat VSMCs with or without PDGF-BB; SDS-PAGE, in-gel digestion, LC-MS/MS", "note": "No constants are given. Whether binding was seen depends on the method and setting. In cells and extracts the contact can be indirect. A yes stands for co-enrichment or nearness to the bait. Other partners may have been found.", "data": [{"substance": "Voltage-dependent anion-selective channel protein 1 (VDAC1), endogenous in rat VSMCs (from UniProt Q9Z2L0 1-283)", "values": [{"measurement": "binding", "value": "binds"}]}]}
